{"source": "patent US5262519A", "about": "(The Salk Institute for Biological Studies, priority 1991, dated 1993)", "experiment": "Boc solid-phase peptide synthesis; MBHA resin; DCCI (HOBt for Asn/Gln)", "conditions": "whole synthesis, HPLC; confirmed by mass spectroscopy and capillary zone electrophoresis", "note": "HELM strings list residues between dots; [ac] is acetyl, [am] amide, other brackets name non-standard units.", "data": [{"substance": "PEPTIDE1{Y.A.D.A.I.F.T.A.S.Y.R.K.V.L.G.Q.L.S.A.R.K.L.L.Q.D.I.[Nle].S.R.[am]}$$$$V2.0", "values": [{"measurement": "final purity (method not given)", "result": "greater than about 95%"}]}]}
